Data on two molecules can be found in publication PMC3338717.

No constants are given. Whether binding was seen depends on the method and setting. Some entries that bind do so weakly or less than the wild type.

The target of test [1] is CCAAT/enhancer binding protein γ (C/EBPγ), endogenous in MLE12 cells (mouse (endogenous in MLE12)) (UniProt P53568). Kind of test: native gel or EMSA; nuclear extracts of MLE12 cells (untreated or 20 ng/ml IL-1β for 3 h; or infected with Adeno-GFP or Adeno-C/EBPγ at 20 MOI) with 32P-labelled murine IL-6 C/EBP binding site probe, room temperature; supershift with antibodies to C/EBP family members; dimers seen as DNA-bound species.

Test [2] concerns the target mouse C/EBPγ expressed from recombinant adenovirus (Adeno-C/EBPγ) in MLE12 cells (mouse) (UniProt P53568). Described as above.

B1: CCAAT/enhancer binding protein γ (C/EBPγ), endogenous in MLE12 cells (protein, UniProt P53568 1-150)
chain: MSKLSQPATTPGVNGISVIHTQAHASGLQQVPQLVPAGPGGGGKAVPPSKQSKKSSPMDRNSDEYRQRRERNNMAVKKSRLKSKQKAQDTLQRVNQLKEENERLEAKIKLLTKELSVLKDLFLEHAHSLADNVQPISTETTATNSDNPGQ
As for B1, in test [1], the binding entry is given as “binds”.

B2: mouse C/EBPγ expressed from recombinant adenovirus (Adeno-C/EBPγ) in MLE12 cells (protein, UniProt P53568 1-150)
chain: B1 chain
B2: the binding result in test [2] is given as “binds”.
